Experimental data published in PubChem BioAssay AID2685 (National Center for Advancing Translational Sciences (NCATS), 2010).
This is one part of the list. The main result of the screen is listed elsewhere. These columns were measured beside it and carry no call. Most of these compounds were active or inconclusive in the main read-out, so they are no random draw. Potencies come from curve fits of mixed quality, noted in brackets.

Experiment: qHTS Assay for Lipid Storage Modulators in Drosophila S3 Cells;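 for cell number change: cells counted by Cell Tracker Red CMTPX staining in the red channel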
Conditions: BODIPY lipid droplet fluorescence, 18-24 h; for cell number change: measured here: cell count max response, cells fed with added oleic acid
Method in brief: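 Laser-scanning cytometry quantifies lipid droplet accumulation (500–530 nm total intensity; droplet/cell object ratio) in oleic acid-fed (400 uM added) Drosophila S3 cells treated with a concentration series. 20 uM Triacsin C defined 100% inhibition.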

[1] = measured here: lipid fluorescence (Fed channel) AC50, cells fed with added oleic acid
[2] = measured here: cell number channel AC50, cells fed with added oleic acid

SMILES	cell number change [%]	AC50 [1]	AC50 [2]
O=C(O)CSc1ccc(S(=O)(=O)N2CCCC2)cn1	-38.7	0.13 µM [falling, full curve, poor fit]	
COc1cc(C(=O)N/C(=C\c2cn(C)c3ccccc23)C(=O)N2CCN(C)CC2)cc(OC)c1OC	15.6		
O=C(O)CNC(=O)c1ccc(S(=O)(=O)N2CCOCC2)cc1	4.21	1.46 µM [rising, full curve, poor fit]	
CC(C)n1c(O)c(N=Nc2ccc(Cl)c(C(=O)O)c2)c2ccccc21	18.7	18.4 µM [rising, partial curve, poor fit]	
O=C(Nc1cccc(S(=O)(=O)N2CCOCC2)c1)c1cccc(S(=O)(=O)N2CCCCC2)c1	17.3		
O=C(CN1C(=O)c2cccc3cccc(c23)C1=O)N1CCN(c2ccccn2)CC1	-7.33	0.731 µM [rising, single point]	
Cc1cccc(OCC(=O)Nc2ccccc2N2CCN(C(=O)C(C)C)CC2)c1C			6.51 µM [rising, single point]
C=CCNC(=S)NNC(=O)c1cc(C)nc2ccccc12	20.9	6.51 µM [rising, partial curve]	
COc1ccc(N2CCN(C(=O)Nc3cccc(C(F)(F)F)c3)CC2)cc1	-12.8	2.59 µM [rising, partial curve]	
Cc1ccc(N=N/C(=C\O)C(=O)c2ccc(Cl)cc2)cc1	-64.8		
O=C(Nc1nc(-c2ccc(F)cc2)cs1)C1CCN(C(=O)c2ccc(F)cc2)CC1			6.51 µM [rising, single point]
CC(Sc1nnnn1C)C(=O)Nc1ccccc1 (configuration not stated)	-22.9		
COC(=O)[C@]1(Cc2ccccc2)N[C@H](c2ccc(-c3ccc(Cl)c(Cl)c3)cc2)[C@@H]2C(=O)N(C)C(=O)[C@@H]21	-42.4	6.51 µM [falling, single point]	16.4 µM [falling, partial curve, poor fit]
Cc1cc(NC(=O)c2sc(Nc3cccc(C(F)(F)F)c3)nc2N)no1	-9.47	0.092 µM [rising, full curve, poor fit]	
O=C(COC(=O)c1ccc(F)c(S(=O)(=O)N2CCOCC2)c1)NCCc1ccccc1		0.731 µM [rising, partial curve, poor fit]	
CCOC(=O)CNC(=O)c1ccc(Cl)s1	-24.1	6.51 µM [falling, single point]	
Cc1cc(C)c2c(n1)SCC(=O)N2CC(=O)Nc1ccc(Br)c(C)c1	-25.6	29.1 µM [rising, single point]	
C/C(=N/O)c1ccccn1	7.36	18.4 µM [falling, partial curve]	
COc1ccc(C)cc1NS(=O)(=O)c1cccc2nonc12	1.69	29.1 µM [rising, single point]	
CCc1cccc(N=c2c([N+](=O)[O-])nn(-c3ccc(Cl)cc3)n2O)c1	-53.4		29.1 µM [falling, single point]
Cc1ccc(C(=O)NNC(=O)C2CC2)cc1Br	18.5	0.259 µM [rising, single point]	

Given as labelled records: part of the list above.
O=C(Nc1cccc(S(=O)(=O)N2CCOCC2)c1)c1cccc(S(=O)(=O)N2CCCCC2)c1
  cell number change [%]: 17.3
O=C(CN1C(=O)c2cccc3cccc(c23)C1=O)N1CCN(c2ccccn2)CC1
  cell number change [%]: -7.33
  AC50 [1]: 0.731 µM [rising, single point]

More structures:

SMILES	cell number change [%]	AC50 [1]	AC50 [2]
Cc1cccc(NC(=O)CSc2nc(=O)n3ccccc3n2)c1C	5.68	0.13 µM [rising, full curve, poor fit]	
Cc1ccc2oc(-c3cccc(NC(=O)Cn4cnc5c(=O)n(C)c(=O)n(C)c54)c3)nc2c1		0.461 µM [rising, single point]	
Cc1ccccc1C(=O)NCCOc1ccccc1Cl	-7.3		
COc1cc(-c2c(NC(=O)c3ccco3)oc3c(C)cccc3c2=O)cc(OC)c1OC	1.18	0.0164 µM [rising, full curve, poor fit]	
COc1ccccc1C(CNC(=O)c1oc2ccccc2c1C)N1CCCC1 (configuration not stated)	-19.1	16.4 µM [rising, partial curve]	
Cc1sc2ncnc(N3CCC(C(=O)N(CC(C)C)c4nc5ccccc5s4)CC3)c2c1C	31.5		1.84 µM [rising, partial curve]
O=C(COc1ccc(-c2ccccc2)cc1)NN=C1CCCC1	-58.2		
COc1ccc(-c2cc3ccccc3n2CC(O)CN2CCC(C)CC2)cc1 (configuration not stated)	35.1		29.1 µM [rising, single point]
Cc1cc(C(F)F)n2nc(C(=O)Nc3ccccc3Br)nc2n1		0.58 µM [rising, single point]	
COCCCn1c(SCC(=O)NC2CCCC2)nnc1-c1ccncc1	22.3	6.51 µM [rising, single point]	
COc1ccc(C)cc1-n1nnnc1SCc1csc(C)n1	-6.12	0.116 µM [rising, full curve, poor fit]	
O=C1c2oc3ccccc3c(=O)c2C(c2cccc(O)c2)N1c1ccccn1 (configuration not stated)	40.2	3.26 µM [rising, single point]	29.1 µM [rising, single point]
CCC1CCCCN1CCCNS(=O)(=O)c1ccc2c(c1)oc(=O)n2C (configuration not stated)	16.2		0.651 µM [rising, full curve]
Cc1cc(C)c(NC(=O)C2CC(=O)N(Cc3ccccc3)C2)c(C)c1 (configuration not stated)	10.6	29.1 µM [falling, single point]	
CCN(CC(=O)Nc1c(F)cccc1F)C(=O)CSc1ccc(F)cc1	19		
CCOc1ccc2nc(SCC(=O)N3CCCc4ccccc43)sc2c1	-9.9	16.4 µM [falling, single point]	
NNC(=O)CN(CCc1ccccc1)S(=O)(=O)c1ccc(Cl)cc1	51.7	7.31 µM [rising, partial curve]	3.26 µM [falling, single point]
CCN(C(=O)CSc1ncn[nH]1)c1c(N)n(Cc2ccccc2)c(=O)[nH]c1=O	-16.5		
CC(=O)Nc1ccc(NC(=O)Cc2ccc(S(=O)(=O)N3CCCCC3)cc2)cc1			6.51 µM [rising, single point]
O=c1nc(-c2ccccc2Cl)c2cc(F)ccc2[nH]1	6.74		
COc1ccc(CN(C(=O)c2ccccc2Br)C2CCS(=O)(=O)C2)cc1 (configuration not stated)	13.3	0.00411 µM [rising, full curve, poor fit]	
